Reference: paper PMC5013604
These are yes or no findings as the source states them, for the method shown. Binding seen in cells or lysates may run through a third protein. Some binding calls cover weakened binding; strength is not graded here.

Sequences of proteins named here, by UniProt entry; tags and fusion partners are left off. A change or cut given only in a name is not applied to a line headed by its entry. A line that says so, or that is headed by a name, gives the form on record, which may keep a tag or linker.
PD-L1 4NQ of the GST pull-down (Q9NZQ7, form named): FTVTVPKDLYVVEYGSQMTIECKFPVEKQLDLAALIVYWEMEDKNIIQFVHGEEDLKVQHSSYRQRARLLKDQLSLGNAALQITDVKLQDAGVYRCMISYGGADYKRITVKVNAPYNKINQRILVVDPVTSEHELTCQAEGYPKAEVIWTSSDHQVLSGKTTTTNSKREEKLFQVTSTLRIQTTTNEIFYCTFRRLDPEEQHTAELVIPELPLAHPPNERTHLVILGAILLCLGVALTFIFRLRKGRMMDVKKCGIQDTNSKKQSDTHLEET
UniProt P49841: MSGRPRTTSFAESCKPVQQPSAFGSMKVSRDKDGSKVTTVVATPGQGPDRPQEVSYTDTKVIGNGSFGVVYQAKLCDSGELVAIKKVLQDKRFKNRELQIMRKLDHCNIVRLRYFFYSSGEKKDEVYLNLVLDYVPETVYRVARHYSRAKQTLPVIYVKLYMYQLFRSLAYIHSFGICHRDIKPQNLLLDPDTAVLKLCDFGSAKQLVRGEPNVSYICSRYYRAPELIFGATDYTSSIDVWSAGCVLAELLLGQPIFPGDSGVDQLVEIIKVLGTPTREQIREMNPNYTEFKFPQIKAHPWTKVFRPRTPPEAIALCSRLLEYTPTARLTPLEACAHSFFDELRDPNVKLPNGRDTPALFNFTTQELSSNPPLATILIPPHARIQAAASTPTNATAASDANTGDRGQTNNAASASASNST

Columns and labels:
[1] = biological target: PD-L1 4NQ (PD-L1-Flag N35Q/N192Q/N200Q/N219Q) (human) (UniProt Q9NZQ7); assay: proximity ligation; Duolink assay in cells
[2] = biological target: PD-L1 4NQ (PD-L1-Flag N35Q/N192Q/N200Q/N219Q) (human) (UniProt Q9NZQ7); assay: co-IP; cells lysed in 50 mM Tris-HCl pH 8.0, 150 mM NaCl, 5 mM EDTA, 0.5% Nonidet P-40; cleared lysates immunoprecipitated with antibodies; which partner was precipitated is not told
[3] = biological target: PD-L1 4NQ of the GST pull-down (human) (UniProt Q9NZQ7); assay: pull-down; in vitro GST pull-down; which partner carried GST is not told

binding [1] | binding [2] | binding [3] | Substance
binds | binds | – | Glycogen synthase kinase 3β (GSK3β), in cells (from UniProt P49841 1-420) (enzyme)
– | – | binds | GSK3β of the GST pull-down (from UniProt P49841 1-420) (enzyme)
